Experimental data published in patent publication US20080311134A1 (published 2008).
These are yes or no findings as the source states them, for the method shown. Some results given as binding are weak or reduced against the parent protein; the word gives no strength.

Target: MUC16 polypeptide, endogenous, on OVCAR-3 cells (human) (UniProt Q8WXI7)
Assay: flow cytometry on OVCAR-3 cells, 25-400 ng/mL, anti-human Fc secondary antibody

- binding: binds
B1: humanized std (standard, parent) 3A5 anti-MUC16 antibody (antibody, human IgG1, kappa, V domains shown)
VH: EVQLVESGGGLVQPGGSLRLSCAASGYSITNDYAWNWVRQAPGKGLEWVGYISYSGYTTYNPSIKSRFTISRDTSKNTLYLQMNSLRAEDTAVYYCARWTSGLDYWGQGTLVTVSS
VL: DIQMTQSPSSLSASVGDRVTITCKASDLIHNWLAWYQQKPGKAPKLLIYGATSLETGVPSRFSGSGSGTDFTLTISSLQPEDFATYYCQQYWTTPFTFGQGTKVEIKR
